Results as given in PubChem BioAssay AID651768 (National Center for Advancing Translational Sciences (NCATS), 2012).
In all, about 360,000 compounds went through this assay and about 1,700 (0.47%) were called active. The shares of active, inactive and inconclusive entries below differ from those in the screen. The call rests on the fitted dose curve; in most records, active means well fitted inhibition curve with a large enough effect; inconclusive means small, poorly fitted or top-dose-only effect; inactive means no such curve, though single readings can be large or run the other way. Potencies beside an inconclusive call are fits to weak or partial responses and may not hold up.

Amino acid sequences for entries named in this document (tags omitted).
UniProt Q14191, whole entry, looked up: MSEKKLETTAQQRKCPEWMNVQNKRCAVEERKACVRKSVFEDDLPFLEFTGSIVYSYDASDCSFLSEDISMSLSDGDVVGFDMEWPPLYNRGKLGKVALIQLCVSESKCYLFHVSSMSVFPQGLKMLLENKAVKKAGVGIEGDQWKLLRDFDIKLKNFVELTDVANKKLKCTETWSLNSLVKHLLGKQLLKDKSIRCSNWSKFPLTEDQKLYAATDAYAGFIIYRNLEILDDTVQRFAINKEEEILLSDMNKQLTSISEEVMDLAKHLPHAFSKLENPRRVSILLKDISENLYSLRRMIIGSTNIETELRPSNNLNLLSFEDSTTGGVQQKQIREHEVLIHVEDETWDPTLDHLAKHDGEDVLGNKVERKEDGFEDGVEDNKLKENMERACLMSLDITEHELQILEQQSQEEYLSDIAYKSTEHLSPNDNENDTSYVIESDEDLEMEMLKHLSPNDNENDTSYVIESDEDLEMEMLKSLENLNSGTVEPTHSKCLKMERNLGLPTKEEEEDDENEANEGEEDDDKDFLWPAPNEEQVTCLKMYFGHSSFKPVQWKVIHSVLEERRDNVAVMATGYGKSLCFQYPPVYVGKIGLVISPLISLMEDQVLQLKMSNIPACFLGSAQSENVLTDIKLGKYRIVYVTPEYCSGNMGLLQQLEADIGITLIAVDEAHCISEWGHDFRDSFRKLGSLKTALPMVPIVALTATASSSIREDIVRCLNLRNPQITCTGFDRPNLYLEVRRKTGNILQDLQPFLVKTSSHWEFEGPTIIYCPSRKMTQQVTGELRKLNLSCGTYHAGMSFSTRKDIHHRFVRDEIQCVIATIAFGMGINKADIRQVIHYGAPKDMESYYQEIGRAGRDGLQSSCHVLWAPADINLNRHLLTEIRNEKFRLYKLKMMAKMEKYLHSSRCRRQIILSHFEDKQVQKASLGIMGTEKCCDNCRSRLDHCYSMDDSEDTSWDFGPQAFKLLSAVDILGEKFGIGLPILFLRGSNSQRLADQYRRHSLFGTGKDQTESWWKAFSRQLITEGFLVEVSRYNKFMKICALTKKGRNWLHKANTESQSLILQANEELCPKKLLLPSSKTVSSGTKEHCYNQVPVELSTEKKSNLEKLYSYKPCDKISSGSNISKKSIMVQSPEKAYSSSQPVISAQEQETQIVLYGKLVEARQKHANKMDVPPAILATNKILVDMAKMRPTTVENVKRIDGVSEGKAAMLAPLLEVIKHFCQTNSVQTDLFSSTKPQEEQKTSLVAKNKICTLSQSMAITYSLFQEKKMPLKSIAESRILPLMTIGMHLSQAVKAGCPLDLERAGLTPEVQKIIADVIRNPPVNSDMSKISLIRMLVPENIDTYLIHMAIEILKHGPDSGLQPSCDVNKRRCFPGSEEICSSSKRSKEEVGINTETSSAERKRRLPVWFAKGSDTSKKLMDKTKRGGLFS

molecular target: Bifunctional 3'-5' exonuclease/ATP-dependent helicase WRN (Homo sapiens) (UniProt Q14191); test: qHTS for Inhibitors of WRN Helicase; conditions: WRN helicase unwinding, fluorescent forked duplex, kinetic; activity change, negative = inhibition: at 114 µM (top of the series) unless noted; further: nearly all actives have a fitted effect of over 55% in size
Outline: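 Kinetic fluorescence helicase assay: unwinding of a quenched forked DNA duplex (100 nM final) with 2 mM ATP final raises red fluorescence (525/598 nm). Compounds sat 15 min at room temperature with 20 nM WRN beforehand.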
On the % scale 0 is the no-effect control and ±100 the full control effect; potency means the concentration at half of the fitted maximal effect.

Structure (SMILES) | Potency | activity change, negative = inhibition
CC(=O)c1ccc(NC(=O)CSc2ccsc2[N+](=O)[O-])cc1 | inconclusive: 31.6 µM [inhibitor, single point] | –
CC(N=Cc1cccc(O)c1O)c1ccccc1 (stereo not drawn) | active: 31.6 µM | –
O=C1CCNc2cc3ccccc3cc21 | inconclusive: 31.6 µM [inhibitor, partial curve] | –
CCN(CC)c1ccc(/C=C(\C#N)c2ccccn2)cc1 | inconclusive: 28.2 µM [inhibitor, single point] | –
COc1ccc(NC(=O)c2cc([N+](=O)[O-])ccc2NC(=O)CNCc2ccccn2)c(OC)c1 | inconclusive: 17.8 µM [inhibitor, single point] | –
O=C1CCCC(=O)C1C1c2ccccc2CCN1C(=O)CCl (stereo not drawn) | inconclusive: 3.55 µM [inhibitor, full curve, poor fit] | –
O=C(Nc1ccc(S(=O)(=O)Nc2nccs2)cc1)c1cc(-c2ccccn2)nc2ccccc12 | inconclusive: 39.8 µM [inhibitor, single point] | –
Cc1ccc(/C=C2\SC(=S)N(NS(=O)(=O)c3ccc(C)cc3)C2=O)cc1 | – | inactive: -8.69% [at 11.6 µM]
Cc1ccc(C2(C)NC(=O)N(CC(=O)Nc3nc(-c4ccccn4)cs3)C2=O)cc1 (stereo not drawn) | inconclusive: 35.5 µM [inhibitor, single point] | –
O=c1cc(O)c2c(=O)n(-c3ccccc3)c3ccccc3c2o1 | – | inactive: -13.8%
c1ccc(CNCCCNCCCCNCCCNCc2ccccc2)cc1 | inconclusive: 39.8 µM [inhibitor, partial curve] | –
CN(C)c1ccc(/C=C2\CCC/C(=C\c3ccccc3)C2=O)cc1 | active: 50.1 µM | –
COc1ccc(NC(=O)c2cc3c(-c4ccc(OC)c(OC)c4)nn(C)c3s2)cc1OC | active: 11.9 µM | –
COc1ccc(N=C2S/C(=C\c3ccc(OCC(=O)O)cc3)C(=O)N2CCc2c[nH]c3ccccc23)cc1 | inconclusive: 31.6 µM [inhibitor, single point] | –
COc1ccc(C(=O)N2N=C(c3cccc(OC)c3)CC2(O)C(F)(F)F)cc1 (stereo not drawn) | inconclusive: 39.8 µM [inhibitor, single point] | –
COc1cc(C(C)=O)ccc1OCCN1CCC(Cc2ccccc2)CC1 | inconclusive: 79.4 µM [inhibitor, partial curve] | –
O=C(O)c1cccc(-c2ccc(/C=N/NC(=O)C3COc4ccccc4O3)o2)c1 (stereo not drawn) | inconclusive: 25.1 µM [inhibitor, full curve] | –
O=S(=O)(Nc1ccc(Cl)cn1)c1cnc(Cl)c(Br)c1 | inconclusive: 70.8 µM [inhibitor, single point] | –

Copied from the listing, 2 compounds:
Structure (SMILES) | Potency | activity change, negative = inhibition
CC(N=Cc1cccc(O)c1O)c1ccccc1 (stereo not drawn) | active: 31.6 µM | –
O=C1CCNc2cc3ccccc3cc21 | inconclusive: 31.6 µM [inhibitor, partial curve] | –
